Source: publication PMC5920332
The exact form of at least one protein or probe is not confirmed. For some assays here: Negatives hold for the conditions tested.

Key:
[1] = system: GST-ScFBH2 (Saccharum spp. (sugarcane)); experiment: competition with a labelled probe; settings: EMSA, unlabeled competitor at 5x, 10x, 20x excess over Cy5 WT probe; 20 mM HEPES-KOH pH 7.2, 80 mM KCl, 0.1 mM EDTA, 5% glycerol, 2.5 mM DTT, 0.2 ug/ul BSA, 500 ng poly(dI-dC); 30 min, room temperature; 7% native PAGE in 0.25x TBE; recombinant protein; protein details: N-terminal GST (pGEX4T-1)
[2] = system: GST-ScFBH2 (Saccharum spp. (sugarcane)); experiment: EMSA; settings: poly(dI-dC) 500 ng, BSA 0.2 ug/ul, probe 50 nM; 20 mM HEPES-KOH pH 7.2, 80 mM KCl, 0.1 mM EDTA, 5% glycerol, 2.5 mM DTT, 0.2 ug/ul BSA, 500 ng poly(dI-dC); 30 min, room temperature; 7% native PAGE in 0.25x TBE; recombinant protein; protein details: N-terminal GST (pGEX4T-1); label: 5'-Cy5 on printed strand

Row | Sequence | binding result [1] | binding result [2]
1 | CCTGCTTGCAACCTCACACACCTCATGCGTGAGCC (double strand) [mEE competitor (both E-boxes mutated)] | no binding | 
2 | CCTGCTTGCACACTTGCACCACTTGTGCGTGAGCC (double strand) [pScACS2 probe (WT, two E-boxes)] |  | binds
